Measured data: PubChem BioAssay AID1224830 (NIAID, 2016)

Aim: 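Genes whose knock-down alters the TNF-alpha reporter response to LPS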 (primary screen)
Cells: human THP-1 monocytic leukaemia cells, TNF dual-luciferase reporter clone, PMA-differentiated to macrophage-like cells
Reagent: siRNA pool against human genes, 50 nM
Duration: LPS for 4 h, given about 3 days after siRNA transfection
Challenge: bacterial LPS (TLR4 ligand), 10 ng/ml
Measurement: 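Ratio of firefly to renilla light, scaled to the plate median and expressed as a robust z-score per replicate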
Scale: TNF reporter robust z-score: higher = stronger TNF reporter response to LPS
Call rule: 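Each well counts as active if its z-score is over 2.8 or under -1.5; controls are left without a call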
Here is a random part of about 18,000 deposited reagents. About 2,900 of all reagents (16%) count as active. 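Calls are made per well; low scores hint the gene aids the LPS response, high scores that it dampens it.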 Repeated entries: four replicate wells of each siRNA pool. No sequences are given here.

gene,TNF reporter robust z-score,Call
TM9SF4,-0.74,inactive
TM9SF4,-0.44,inactive
TM9SF4,-0.49,inactive
TM9SF4,-0.4,inactive
C1orf226,2.78,inactive
C1orf226,3.96,active
C1orf226,2.46,inactive
C1orf226,3.07,active
NTN1,-0.15,inactive
NTN1,1.44,inactive
NTN1,0.79,inactive
NTN1,0.73,inactive
CAPRIN1,-1.61,active
CAPRIN1,-1.59,active
CAPRIN1,-0.99,inactive
CAPRIN1,-1.23,inactive
AMBRA1,-0.17,inactive
AMBRA1,2.28,inactive
AMBRA1,-0.41,inactive
AMBRA1,1.82,inactive
DAZ3,-0.2,inactive
DAZ3,0.52,inactive
DAZ3,-0.64,inactive
DAZ3,0.73,inactive
UNC5CL,-0.13,inactive
UNC5CL,-0.56,inactive
UNC5CL,-0.01,inactive
UNC5CL,-0.4,inactive
SPACDR,0.28,inactive
SPACDR,0.62,inactive
SPACDR,1.36,inactive
SPACDR,0.12,inactive
LRRC45,-0.26,inactive
LRRC45,0.66,inactive
LRRC45,0.18,inactive
LRRC45,0.71,inactive
SUMF1,-1.05,inactive
SUMF1,-0.54,inactive
SUMF1,-0.86,inactive
SUMF1,-0.85,inactive
ZBED10P,-0.47,inactive
ZBED10P,-0.02,inactive
ZBED10P,0.37,inactive
ZBED10P,0.51,inactive
ST8SIA6,0.17,inactive
ST8SIA6,0.37,inactive
ST8SIA6,0.59,inactive
ST8SIA6,2.96,active
BEGAIN,5.15,active
BEGAIN,2.52,inactive
BEGAIN,0.84,inactive
BEGAIN,-0.14,inactive
IGF2BP3,0.34,inactive
IGF2BP3,-0.13,inactive
IGF2BP3,0.45,inactive
IGF2BP3,1.74,inactive
PNPLA6,-0.73,inactive
PNPLA6,-0.65,inactive
PNPLA6,-0.4,inactive
PNPLA6,-0.85,inactive
APCDD1,-1.02,inactive
APCDD1,-1.14,inactive
APCDD1,-1.11,inactive
APCDD1,-1.25,inactive
PCBP1,-0.69,inactive
PCBP1,0.03,inactive
PCBP1,-0.38,inactive
PCBP1,-0.52,inactive
RDH8,0.39,inactive
RDH8,-0.53,inactive
RDH8,-0.89,inactive
RDH8,-1.04,inactive
CORO6,-0.32,inactive
CORO6,0.93,inactive
CORO6,1.07,inactive
CORO6,0.91,inactive
NOP14,-1.43,inactive
NOP14,-1.22,inactive
NOP14,-1.51,active
NOP14,-1.44,inactive
SLCO2B1,-0.16,inactive
SLCO2B1,0.07,inactive
SLCO2B1,-0.1,inactive
SLCO2B1,-0.43,inactive
POLR3H,0.47,inactive
POLR3H,0.69,inactive
POLR3H,0.27,inactive
POLR3H,0.43,inactive
ERG,-1.51,active
ERG,-0.9,inactive
ERG,-1.43,inactive
ERG,-1.26,inactive
JPH2,-0.01,inactive
JPH2,0.86,inactive
JPH2,-0.97,inactive
JPH2,0.56,inactive
OR10T2,0,inactive
OR10T2,0.01,inactive
OR10T2,0.03,inactive
OR10T2,0.41,inactive
CCNG2,-0.95,inactive
CCNG2,-0.39,inactive
CCNG2,-0.06,inactive
CCNG2,-1.12,inactive
LIFR,0.22,inactive
LIFR,0.61,inactive
LIFR,0.07,inactive
LIFR,0.5,inactive
MYOM2,-0.1,inactive
MYOM2,0.03,inactive
MYOM2,0.58,inactive
MYOM2,-0.01,inactive

An excerpt taken from the entries so far, as a working copy:
gene,TNF reporter robust z-score,Call
OR10T2,0.03,inactive
OR10T2,0.41,inactive
CCNG2,-0.95,inactive
CCNG2,-0.39,inactive
CCNG2,-0.06,inactive
CCNG2,-1.12,inactive
LIFR,0.22,inactive
LIFR,0.61,inactive
LIFR,0.07,inactive
LIFR,0.5,inactive
